Experimental data as given in paper PMC6355651.
These are yes or no findings as the source states them, for the method shown. For some assays here: In cells and extracts the contact can be indirect. Some entries that bind do so weakly or less than the wild type. For some assays here: Sequences can lack the tags named with a protein.

Sequences of proteins named here, by UniProt entry; tags and fusion partners are left off.
UniProt Q92793: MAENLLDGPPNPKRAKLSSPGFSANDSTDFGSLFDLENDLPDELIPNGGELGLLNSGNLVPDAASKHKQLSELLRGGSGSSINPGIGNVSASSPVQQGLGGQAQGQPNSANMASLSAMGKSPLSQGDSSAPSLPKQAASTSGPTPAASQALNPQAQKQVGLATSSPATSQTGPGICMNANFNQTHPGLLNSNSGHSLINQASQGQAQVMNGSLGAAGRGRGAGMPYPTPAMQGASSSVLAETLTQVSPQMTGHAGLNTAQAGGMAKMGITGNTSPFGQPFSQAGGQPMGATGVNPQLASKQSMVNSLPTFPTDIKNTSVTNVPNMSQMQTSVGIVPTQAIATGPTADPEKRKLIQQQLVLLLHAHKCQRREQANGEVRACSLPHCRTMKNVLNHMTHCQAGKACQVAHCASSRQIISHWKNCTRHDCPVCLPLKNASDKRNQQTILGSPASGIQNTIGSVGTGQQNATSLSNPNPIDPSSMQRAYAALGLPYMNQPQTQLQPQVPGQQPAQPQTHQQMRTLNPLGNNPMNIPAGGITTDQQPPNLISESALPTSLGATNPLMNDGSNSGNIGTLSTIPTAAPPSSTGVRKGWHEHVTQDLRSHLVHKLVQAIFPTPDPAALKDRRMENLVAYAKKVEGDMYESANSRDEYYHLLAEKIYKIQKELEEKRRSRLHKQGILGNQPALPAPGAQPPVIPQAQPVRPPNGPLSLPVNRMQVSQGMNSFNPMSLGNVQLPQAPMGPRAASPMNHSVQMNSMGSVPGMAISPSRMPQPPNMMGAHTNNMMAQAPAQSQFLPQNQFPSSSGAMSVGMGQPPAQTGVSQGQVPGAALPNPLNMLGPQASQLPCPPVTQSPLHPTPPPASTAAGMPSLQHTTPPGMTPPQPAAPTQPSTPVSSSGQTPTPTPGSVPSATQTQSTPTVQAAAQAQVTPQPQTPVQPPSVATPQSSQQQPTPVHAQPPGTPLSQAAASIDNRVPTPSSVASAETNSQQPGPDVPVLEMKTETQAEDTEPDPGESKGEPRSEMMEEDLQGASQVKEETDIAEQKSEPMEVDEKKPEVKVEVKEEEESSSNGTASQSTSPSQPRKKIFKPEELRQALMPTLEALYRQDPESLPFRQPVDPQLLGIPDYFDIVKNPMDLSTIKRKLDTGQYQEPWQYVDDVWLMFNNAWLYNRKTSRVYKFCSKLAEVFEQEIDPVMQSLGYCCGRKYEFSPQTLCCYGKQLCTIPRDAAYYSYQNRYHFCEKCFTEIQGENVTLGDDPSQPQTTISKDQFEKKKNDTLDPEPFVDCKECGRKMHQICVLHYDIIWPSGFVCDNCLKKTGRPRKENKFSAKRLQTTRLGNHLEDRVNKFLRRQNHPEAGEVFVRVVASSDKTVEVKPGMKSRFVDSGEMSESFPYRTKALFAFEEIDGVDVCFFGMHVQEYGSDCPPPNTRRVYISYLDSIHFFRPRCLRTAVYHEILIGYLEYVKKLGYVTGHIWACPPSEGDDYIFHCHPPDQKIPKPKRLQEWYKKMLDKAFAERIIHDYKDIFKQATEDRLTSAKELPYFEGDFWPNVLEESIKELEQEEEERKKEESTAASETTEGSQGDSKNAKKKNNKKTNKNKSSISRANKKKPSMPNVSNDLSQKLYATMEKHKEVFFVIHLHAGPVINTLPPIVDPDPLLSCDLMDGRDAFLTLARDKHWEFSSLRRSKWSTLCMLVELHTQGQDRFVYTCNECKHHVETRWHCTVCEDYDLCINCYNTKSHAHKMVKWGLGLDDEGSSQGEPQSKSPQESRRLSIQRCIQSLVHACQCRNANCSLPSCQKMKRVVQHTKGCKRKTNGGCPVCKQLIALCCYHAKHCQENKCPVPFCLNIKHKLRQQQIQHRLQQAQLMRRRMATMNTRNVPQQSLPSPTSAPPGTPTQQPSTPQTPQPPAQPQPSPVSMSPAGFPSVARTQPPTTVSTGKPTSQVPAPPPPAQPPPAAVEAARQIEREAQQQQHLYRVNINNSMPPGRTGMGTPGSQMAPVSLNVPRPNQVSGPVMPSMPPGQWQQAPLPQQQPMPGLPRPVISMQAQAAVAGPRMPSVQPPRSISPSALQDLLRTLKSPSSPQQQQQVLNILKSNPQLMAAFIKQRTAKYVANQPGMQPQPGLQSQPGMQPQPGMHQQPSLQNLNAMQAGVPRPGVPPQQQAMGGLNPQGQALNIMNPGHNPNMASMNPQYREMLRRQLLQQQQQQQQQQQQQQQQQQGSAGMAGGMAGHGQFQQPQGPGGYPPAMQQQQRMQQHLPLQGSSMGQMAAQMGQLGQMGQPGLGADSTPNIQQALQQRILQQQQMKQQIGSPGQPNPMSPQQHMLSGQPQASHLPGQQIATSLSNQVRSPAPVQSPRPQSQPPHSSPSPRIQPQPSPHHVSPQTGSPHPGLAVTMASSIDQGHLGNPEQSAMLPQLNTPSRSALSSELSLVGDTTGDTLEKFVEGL
UniProt P35222: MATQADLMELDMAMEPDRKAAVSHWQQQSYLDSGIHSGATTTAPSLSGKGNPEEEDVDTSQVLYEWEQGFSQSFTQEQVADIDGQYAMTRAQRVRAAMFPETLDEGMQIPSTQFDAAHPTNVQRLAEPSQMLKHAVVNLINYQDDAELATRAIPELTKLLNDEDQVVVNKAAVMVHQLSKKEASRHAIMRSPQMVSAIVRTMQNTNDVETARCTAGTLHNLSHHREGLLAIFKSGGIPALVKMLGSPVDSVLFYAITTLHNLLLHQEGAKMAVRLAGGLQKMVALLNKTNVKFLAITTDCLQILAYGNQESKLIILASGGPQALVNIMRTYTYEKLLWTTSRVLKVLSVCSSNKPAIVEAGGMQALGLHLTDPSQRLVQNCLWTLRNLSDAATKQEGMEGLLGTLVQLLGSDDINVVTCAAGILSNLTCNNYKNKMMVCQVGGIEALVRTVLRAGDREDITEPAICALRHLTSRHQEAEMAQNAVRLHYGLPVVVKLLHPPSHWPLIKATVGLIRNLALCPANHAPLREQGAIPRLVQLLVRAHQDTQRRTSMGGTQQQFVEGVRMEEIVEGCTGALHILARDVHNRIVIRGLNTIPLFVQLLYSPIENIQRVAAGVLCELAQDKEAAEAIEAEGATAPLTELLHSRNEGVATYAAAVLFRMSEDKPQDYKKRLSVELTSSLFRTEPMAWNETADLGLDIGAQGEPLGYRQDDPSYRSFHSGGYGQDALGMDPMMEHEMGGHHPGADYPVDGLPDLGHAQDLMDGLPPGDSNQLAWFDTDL

Key:
[1] = target: CBP-Flag (UniProt Q92793); assay: pull-down; CBP-Flag immunoprecipitated from 293T lysates on anti-Flag affinity gel, incubated with purified β-catenin-GST (100 ng) and SHCBP1-HA protein at indicated concentrations for 2 h, washed six times, immunoblot for Flag, GST and HA; both purified
[2] = target: CBP (human (endogenous in 293T, A549)) (UniProt Q92793); assay: co-IP; nuclear extracts of 293T and A549 cells with or without EGF; HCC827 and HCC4006 cells with or without gefitinib; also with SHCBP1 siRNA, ectopic SHCBP1 or ICG-001
[3] = target: T1, SHCBP1-HA (human) (UniProt Q8NEM2); assay: pull-down; modified peptide pull-down: FLAG-β-catenin purified from 293T extracts incubated with SHCBP1-HA affinity agarose beads for 4 h at 4 °C, washed, immunoblot with anti-FLAG antibody; both purified
T1 sequence: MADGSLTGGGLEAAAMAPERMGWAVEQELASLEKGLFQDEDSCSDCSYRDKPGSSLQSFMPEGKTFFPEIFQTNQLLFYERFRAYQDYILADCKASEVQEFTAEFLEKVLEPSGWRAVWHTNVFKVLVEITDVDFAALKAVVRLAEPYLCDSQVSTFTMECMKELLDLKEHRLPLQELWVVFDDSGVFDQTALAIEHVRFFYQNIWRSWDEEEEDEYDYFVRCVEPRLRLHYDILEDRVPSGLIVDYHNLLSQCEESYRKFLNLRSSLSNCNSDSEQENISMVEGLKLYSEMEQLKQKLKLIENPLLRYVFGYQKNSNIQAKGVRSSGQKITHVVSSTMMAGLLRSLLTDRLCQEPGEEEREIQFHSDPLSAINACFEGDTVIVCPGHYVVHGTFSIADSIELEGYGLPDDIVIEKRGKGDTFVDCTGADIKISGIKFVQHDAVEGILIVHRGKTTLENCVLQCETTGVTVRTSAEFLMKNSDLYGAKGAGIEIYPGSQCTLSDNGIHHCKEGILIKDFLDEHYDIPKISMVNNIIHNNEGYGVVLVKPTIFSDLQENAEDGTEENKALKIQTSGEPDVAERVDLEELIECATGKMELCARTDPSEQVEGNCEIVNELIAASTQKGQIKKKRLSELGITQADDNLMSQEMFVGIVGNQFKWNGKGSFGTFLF

[4] = substrate: CBP (human (endogenous in 293T, A549)) (UniProt Q92793); assay: pull-down; modified in vitro peptide pull-down: purified Flag-SHCBP1 incubated with a 293T extraction, immunoblot with anti-Flag antibody; only the binder purified
[5] = target: β-catenin (human (endogenous in 293T, A549, HCC827, HCC4006)) (UniProt P35222); assay: co-IP; 293T and A549 cells, with and without EGF stimulation; western blot (Fig. 1g, 1i)
[6] = target: T2, SHC adaptor protein 1 (SHC1) (human (endogenous in 293T, A549)) (UniProt P29353); assay: co-IP; immunoprecipitation against SHC1, western blot for SHCBP1; 293T and A549 cells without EGF; with or without EGFR depletion
T2 sequence: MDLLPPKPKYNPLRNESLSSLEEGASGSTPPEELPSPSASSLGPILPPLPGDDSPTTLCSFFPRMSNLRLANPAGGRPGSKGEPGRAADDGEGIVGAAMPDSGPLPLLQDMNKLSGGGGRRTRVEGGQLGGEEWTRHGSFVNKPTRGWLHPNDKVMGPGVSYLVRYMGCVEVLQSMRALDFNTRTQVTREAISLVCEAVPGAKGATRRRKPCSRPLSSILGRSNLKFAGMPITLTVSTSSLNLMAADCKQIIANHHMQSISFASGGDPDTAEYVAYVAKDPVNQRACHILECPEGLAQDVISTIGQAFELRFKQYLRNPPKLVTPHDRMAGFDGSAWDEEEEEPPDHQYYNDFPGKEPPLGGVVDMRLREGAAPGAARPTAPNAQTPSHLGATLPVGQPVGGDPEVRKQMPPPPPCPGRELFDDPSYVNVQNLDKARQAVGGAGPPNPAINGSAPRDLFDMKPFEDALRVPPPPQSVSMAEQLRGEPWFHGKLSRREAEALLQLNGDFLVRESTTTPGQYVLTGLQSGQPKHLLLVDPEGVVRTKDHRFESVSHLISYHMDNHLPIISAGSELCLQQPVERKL

[7] = target: β-catenin (human (endogenous in 293T, A549, HCC827, HCC4006)) (UniProt P35222); assay: co-IP; nuclear extracts of 293T and A549 cells with or without EGF; HCC827 and HCC4006 cells with or without gefitinib; also with SHCBP1 siRNA, ectopic SHCBP1 or ICG-001
[8] = target: HA-β-catenin (UniProt P35222); assay: co-IP; FLAG-tagged serially truncated SHCBP1 constructs and HA-β-catenin co-transfected in 293T

Molecule: β-catenin-GST (from UniProt P35222 1-781)
- binding [1]: binds

Molecule: β-catenin (from UniProt P35222 1-781)
- binding [2]: binds

Molecule: FLAG-β-catenin (from UniProt P35222 1-781)
- binding [3]: binds

B1: Flag-tagged SHCBP1 (protein, UniProt Q8NEM2 1-672)
chain: T1 sequence
- binding [4]: binds

B2: SHC-binging protein 1 (SHCBP1) (protein, UniProt Q8NEM2 1-672)
chain: T1 sequence
- binding [5]: binds
- binding [6]: binds
- binding [7]: binds

B3: FLAG-tagged truncated SHCBP1 (1–428) (domain or fragment, UniProt Q8NEM2 1-428)
chain: MADGSLTGGGLEAAAMAPERMGWAVEQELASLEKGLFQDEDSCSDCSYRDKPGSSLQSFMPEGKTFFPEIFQTNQLLFYERFRAYQDYILADCKASEVQEFTAEFLEKVLEPSGWRAVWHTNVFKVLVEITDVDFAALKAVVRLAEPYLCDSQVSTFTMECMKELLDLKEHRLPLQELWVVFDDSGVFDQTALAIEHVRFFYQNIWRSWDEEEEDEYDYFVRCVEPRLRLHYDILEDRVPSGLIVDYHNLLSQCEESYRKFLNLRSSLSNCNSDSEQENISMVEGLKLYSEMEQLKQKLKLIENPLLRYVFGYQKNSNIQAKGVRSSGQKITHVVSSTMMAGLLRSLLTDRLCQEPGEEEREIQFHSDPLSAINACFEGDTVIVCPGHYVVHGTFSIADSIELEGYGLPDDIVIEKRGKGDTFVDCTG
- binding [8]: binds
